Measured values: patent US20080241081A1, “AMIDE COMPOUND OR SALT THEREOF, AND BIOFILM REMOVER CONTAINING THE SAME” (priority 2006, published 2008)
For at least one compound, name, drawing or mass did not settle the structure.

System: biofilm formed by Porphyromonas gingivalis 381-strain
Test: Evaluation test for removing biofilms formed by periodontitis pathogenic bacteria (flow cell system, optical microscope)
Assay type: cell-based
Conditions: same experiment as Experiment Example 1, Porphyromonas gingivalis 381-strain, 10 days
Procedure: The same experiment as in Experiment Example 1 was conducted except that periodontitis pathogenic bacteria Porphyromonas gingivalis 381-strain (clinical bacteria) was used in place of Pseudomonas aeruginosa PAO1-strain. […] The gradual exfoliation of the deposited biofilm from the cell wall, and the flowing flakes of biofilm exfoliation in the cell were also visually observed.

CCCC(=O)CC(=O)Nc1ncccc1O [Compound 1c-1, N-(3-hydroxypyridine-2-yl)-3-oxohexanoyl amide]
state of biofilm (removal): nearly the entire biofilm was removed in 10 days

CCCCCCCCCC(=O)CC(=O)Nc1ccc(O)cc1C [Compound 1b-1, N-(4-hydroxy-2-methylphenyl)-3-oxododecanoyl amide]
state of biofilm (removal): nearly the entire biofilm was removed in 10 days
